# Source: paper PMC5155426, “Organic Redox Species in Aqueous Flow Batteries: Redox Potentials, Chemical Stability and Solubility” (Scientific Reports, 2016)
# Assay: Single cell redox flow battery (RFB) tests
compound,measurement,setting,value
"O=C1C=C(S(=O)(=O)O)c2ccccc2C1=O [NQ(1,2)S, 1,2-naphtoquinone-4-sulfonate sodium]",capacity retention in RFB test,200 mM with excess ferrocyanide in 1 M KOH (Fig. 6b),significant capacity loss over 90 cycles
"O=C1C=C(O)C(=O)c2ccccc21 [NQ(1,4)H, 2-hydroxy-1,4-naphtoquinone]",capacity retention in RFB test,"200 mM in 1 M KOH on negative side, excess ferrocyanide on positive side (Fig. 6a)",significant capacity loss after only two cycles
"CC1(C)CC(O)CC(C)(C)N1[O] [TEMPOL, 4-hydroxy-2,2,6,6-tetramethylpiperidine-1-oxyl]",capacity retention in RFB test,"50 mM with AQDS(2,7) in 0.5 M phosphate buffer pH 7, positive side (Fig. 6d)",significant capacity loss
